## Cleaved PARP after 72 h of treatment

Values as published with doi:10.1371/journal.pone.0140310, rounded.

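The test systems are human melanoma cell lines, treated with a pair of drugs for 72 h and then stained and imaged. The read-out is the fraction of cleaved-PARP-positive nuclei, in % of that fraction in the DMSO control; 200 means twice the control level of this apoptosis marker. Every drug was used at one fixed concentration, the higher of two screened. The file gives one value for each pair and line, without errors, so small differences may be noise. The marker varies much from line to line, for technical or biological reasons.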
Only some of the drugs and lines screened are listed, without regard to their results.

Drugs:
vorinostat, 400 nM: O=C(CCCCCCC(=O)Nc1ccccc1)NO
PF-04217903, 5000 nM: OCCn1cc(-c2cnc3nnn(Cc4ccc5ncccc5c4)c3n2)cn1
SNS-314, 4 nM: O=C(Nc1cccc(Cl)c1)Nc1ncc(CCNc2ncnc3ccsc23)s1
enzastaurin, 4000 nM: Cn1cc(C2=C(c3cn(C4CCN(Cc5ccccn5)CC4)c4ccccc34)C(=O)NC2=O)c2ccccc21
tanespimycin, 10 nM: C=CCNC1=C2C[C@@H](C)C[C@H](OC)[C@H](O)[C@@H](C)/C=C(\C)[C@H](OC(N)=O)[C@@H](OC)/C=C\C=C(/C)C(=O)NC(=CC1=O)C2=O
TCS401, 8330 nM: O=C(O)C(=O)Nc1sc2c(c1C(=O)O)CCNC2
dorsomorphin, 2000 nM: c1cc(-c2cnn3cc(-c4ccc(OCCN5CCCCC5)cc4)cnc23)ccn1
NVP-BEZ235, 20 nM: Cn1c(=O)n(-c2ccc(C(C)(C)C#N)cc2)c2c3cc(-c4cnc5ccccc5c4)ccc3ncc21
ruxolitinib, 5000 nM: N#CC[C@H](C1CCCC1)n1cc(-c2ncnc3[nH]ccc23)cn1
embelin, 6000 nM: CCCCCCCCCCCC1=C(O)C(=O)C=C(O)C1=O
gemcitabine, 2 nM: Nc1ccn([C@@H]2O[C@H](CO)[C@@H](O)C2(F)F)c(=O)n1
OSI-906, 2000 nM: C[C@]1(O)C[C@@H](c2nc(-c3ccc4ccc(-c5ccccc5)nc4c3)c3c(N)nccn32)C1
GW9662, 10000 nM: O=C(Nc1ccccc1)c1cc([N+](=O)[O-])ccc1Cl
KU-55933, 5000 nM: O=c1cc(-c2cccc3c2Sc2ccccc2S3)oc(N2CCOCC2)c1
FH535, 5000 nM: Cc1cc([N+](=O)[O-])ccc1NS(=O)(=O)c1cc(Cl)ccc1Cl
temozolomide, 10000 nM: Cn1nnc2c(C(N)=O)ncn2c1=O
SU6656, 2000 nM: CN(C)S(=O)(=O)c1ccc2c(c1)/C(=C/c1cc3c([nH]1)CCCC3)C(=O)N2
crizotinib, 1000 nM: C[C@@H](Oc1cc(-c2cnn(C3CCNCC3)c2)cnc1N)c1c(Cl)ccc(F)c1Cl
tozasertib, 30 nM: Cc1cc(Nc2cc(N3CCN(C)CC3)nc(Sc3ccc(NC(=O)C4CC4)cc3)n2)n[nH]1
SNS-032, 50 nM: CC(C)(C)c1cnc(CSc2cnc(NC(=O)C3CCNCC3)s2)o1

Drugs,A2058,IPC-298,SK-MEL-5,C32,WM1716,A101D,COLO 829,WM451Lu,SK-MEL-30,LOX IMVI,COLO 800,SK-MEL-2
SNS-032 + KU-55933,154,46.0,364,127,160,141,48.4,85.2,83.7,110,147,117
NVP-BEZ235 + GW9662,109,177,77.1,90.9,32.8,177,184,185,116,152,66.8,186
gemcitabine + OSI-906,122,553,109,154,149,96.0,364,988,88.2,90.0,249,130
FH535 + tozasertib,88.3,138,202,103,34.5,99.4,172,91.7,70.8,136,206,132
SU6656 + TCS401,82.7,336,155,98.3,153,62.9,163,145,80.2,114,68.8,150
embelin + SNS-314,262,53.4,163,255,202,69.9,186,635,149,110,126,196
SU6656 + tanespimycin,224,214,216,2210,117,49.7,132,204,207,433,96.1,28.9
gemcitabine + crizotinib,277,198,47.7,63.2,71.0,118,456,245,82.3,72.2,410,46.2
ruxolitinib + vorinostat,36.1,69.3,173,66.7,163,268,136,39.4,196,68.0,131,92.7
tanespimycin + TCS401,262,47.4,176,924,77.6,135,36.1,234,43.5,62.7,116,40.0
NVP-BEZ235 + tanespimycin,291,150,478,618,69.7,103,181,365,157,146,94.8,123
tozasertib + SNS-032,215,68.0,201,107,251,54.7,133,107,31.6,56.1,234,389
dorsomorphin + vorinostat,148,66.9,118,167,46.5,61.9,70.3,218,123,35.5,35.1,68.7
enzastaurin + SNS-314,170,141,99.8,226,451,109,160,232,91.2,26.2,384,474
gemcitabine + tanespimycin,1100,347,98.5,459,174,113,468,224,99.3,203,242,60.4
vorinostat + KU-55933,64.0,32.7,249,101,148,119,148,117,46.7,74.4,49.7,196
SU6656 + dorsomorphin,881,97.1,59.8,356,294,140,34.6,236,125,175,301,165
temozolomide + tozasertib,384,131,333,465,547,83.2,219,75.7,62.0,83.5,233,35.9
crizotinib + PF-04217903,225,106,98.9,103,21.1,53.6,78.5,56.2,205,172,111,82.3
enzastaurin + OSI-906,148,46.6,57.9,99.7,157,85.5,88.2,133,36.5,179,166,404

Some entries from above, unchanged:

Drugs	A2058	IPC-298	SK-MEL-5	C32	WM1716	A101D	COLO 829	WM451Lu	SK-MEL-30	LOX IMVI	COLO 800	SK-MEL-2
gemcitabine + crizotinib	277	198	47.7	63.2	71.0	118	456	245	82.3	72.2	410	46.2
temozolomide + tozasertib	384	131	333	465	547	83.2	219	75.7	62.0	83.5	233	35.9